# Paper PMC11542072
# By UniProt entry, the sequences of proteins in these tests, tags left out.
# UniProt Q12756: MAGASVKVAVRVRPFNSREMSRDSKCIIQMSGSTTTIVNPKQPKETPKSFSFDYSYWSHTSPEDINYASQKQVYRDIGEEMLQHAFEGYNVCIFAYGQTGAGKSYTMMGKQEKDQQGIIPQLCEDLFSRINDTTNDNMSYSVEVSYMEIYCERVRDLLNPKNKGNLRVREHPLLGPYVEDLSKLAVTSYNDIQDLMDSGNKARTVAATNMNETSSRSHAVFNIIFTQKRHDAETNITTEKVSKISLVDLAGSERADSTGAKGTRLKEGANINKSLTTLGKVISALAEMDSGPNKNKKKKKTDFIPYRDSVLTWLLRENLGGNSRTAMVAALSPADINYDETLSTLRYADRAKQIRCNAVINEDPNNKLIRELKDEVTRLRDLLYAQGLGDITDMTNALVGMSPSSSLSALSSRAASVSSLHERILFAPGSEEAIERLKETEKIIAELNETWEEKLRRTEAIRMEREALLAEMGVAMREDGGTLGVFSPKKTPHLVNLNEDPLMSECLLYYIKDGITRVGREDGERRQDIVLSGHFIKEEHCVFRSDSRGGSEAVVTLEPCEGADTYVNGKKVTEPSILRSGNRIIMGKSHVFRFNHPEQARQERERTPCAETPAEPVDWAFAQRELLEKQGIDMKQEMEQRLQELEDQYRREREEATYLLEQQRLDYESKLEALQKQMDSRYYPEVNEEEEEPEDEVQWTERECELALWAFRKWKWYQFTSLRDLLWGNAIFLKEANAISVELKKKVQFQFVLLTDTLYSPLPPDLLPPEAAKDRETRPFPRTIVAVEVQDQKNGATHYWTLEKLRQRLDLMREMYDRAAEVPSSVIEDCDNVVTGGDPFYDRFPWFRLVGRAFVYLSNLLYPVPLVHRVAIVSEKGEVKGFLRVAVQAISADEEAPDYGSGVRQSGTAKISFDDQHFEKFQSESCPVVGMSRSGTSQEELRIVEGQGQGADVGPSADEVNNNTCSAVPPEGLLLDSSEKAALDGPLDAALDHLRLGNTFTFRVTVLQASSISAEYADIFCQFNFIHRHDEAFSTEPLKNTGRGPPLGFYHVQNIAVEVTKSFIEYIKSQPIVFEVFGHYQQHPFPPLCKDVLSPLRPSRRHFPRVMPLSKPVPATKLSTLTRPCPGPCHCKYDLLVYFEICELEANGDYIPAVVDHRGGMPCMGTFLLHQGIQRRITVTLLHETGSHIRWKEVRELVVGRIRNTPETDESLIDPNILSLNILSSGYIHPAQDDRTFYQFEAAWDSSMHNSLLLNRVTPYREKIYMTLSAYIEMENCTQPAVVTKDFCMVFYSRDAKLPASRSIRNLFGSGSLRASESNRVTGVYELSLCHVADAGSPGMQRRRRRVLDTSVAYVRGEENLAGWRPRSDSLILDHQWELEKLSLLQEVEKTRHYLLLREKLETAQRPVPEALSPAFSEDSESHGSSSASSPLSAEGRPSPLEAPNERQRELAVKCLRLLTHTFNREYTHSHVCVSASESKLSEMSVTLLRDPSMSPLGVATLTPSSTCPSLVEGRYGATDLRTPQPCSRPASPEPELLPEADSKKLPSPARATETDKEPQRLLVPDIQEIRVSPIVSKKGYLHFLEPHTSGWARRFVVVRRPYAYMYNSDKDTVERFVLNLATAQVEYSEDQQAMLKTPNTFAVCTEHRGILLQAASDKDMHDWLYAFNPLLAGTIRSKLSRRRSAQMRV
# No constants are given. Whether binding was seen depends on the method and setting. Binding seen in cells or lysates may run through a third protein. Some entries that bind do so weakly or less than the wild type. Sequences can lack the tags named with a protein.
# B1: O-linked N-acetylglucosamine transferase (OGT), in HEK293T cells (enzyme, UniProt O15294 1-1046)
# chain: MASSVGNVADSTEPTKRMLSFQGLAELAHREYQAGDFEAAERHCMQLWRQEPDNTGVLLLLSSIHFQCRRLDRSAHFSTLAIKQNPLLAEAYSNLGNVYKERGQLQEAIEHYRHALRLKPDFIDGYINLAAALVAAGDMEGAVQAYVSALQYNPDLYCVRSDLGNLLKALGRLEEAKACYLKAIETQPNFAVAWSNLGCVFNAQGEIWLAIHHFEKAVTLDPNFLDAYINLGNVLKEARIFDRAVAAYLRALSLSPNHAVVHGNLACVYYEQGLIDLAIDTYRRAIELQPHFPDAYCNLANALKEKGSVAEAEDCYNTALRLCPTHADSLNNLANIKREQGNIEEAVRLYRKALEVFPEFAAAHSNLASVLQQQGKLQEALMHYKEAIRISPTFADAYSNMGNTLKEMQDVQGALQCYTRAIQINPAFADAHSNLASIHKDSGNIPEAIASYRTALKLKPDFPDAYCNLAHCLQIVCDWTDYDERMKKLVSIVADQLEKNRLPSVHPHHSMLYPLSHGFRKAIAERHGNLCLDKINVLHKPPYEHPKDLKLSDGRLRVGYVSSDFGNHPTSHLMQSIPGMHNPDKFEVFCYALSPDDGTNFRVKVMAEANHFIDLSQIPCNGKAADRIHQDGIHILVNMNGYTKGARNELFALRPAPIQAMWLGYPGTSGALFMDYIITDQETSPAEVAEQYSEKLAYMPHTFFIGDHANMFPHLKKKAVIDFKSNGHIYDNRIVLNGIDLKAFLDSLPDVKIVKMKCPDGGDNADSSNTALNMPVIPMNTIAEAVIEMINRGQIQITINGFSISNGLATTQINNKAATGEEVPRTIIVTTRSQYGLPEDAIVYCNFNQLYKIDPSTLQMWANILKRVPNSVLWLLRFPAVGEPNIQQYAQNMGLPQNRIIFSPVAPKEEHVRRGQLADVCLDTPLCNGHTTGMDVLWAGTPMVTMPGETLASRVAASQLTCLGCLELIAKNRQEYEDIAVKLGTDLEYLKKVRGKVWKQRISSPLFNTKQYTMELERLYLQMWEHYAAGNKPDHMIKPVEVTESA
# B2: O-linked N-acetylglucosamine transferase (OGT) (enzyme, UniProt O15294 1-1046)
# chain: B1 chain
# What was measured:
# [1] = target: Kinesin-like protein (KIF1A), in HEK293T cells (human (endogenous in HEK293T, or cDNA of Gene ID 547)) (UniProt Q12756); assay: co-IP; co-IP of KIF1A and OGT in HEK293T cells, Western blot
# [2] = target: Kinesin-like protein (KIF1A) (human (endogenous in LNCaP-AI and LNCaP)) (UniProt Q12756); assay: co-IP; co-IP of KIF1A and OGT in LNCaP and LNCaP-AI cells, Western blot; more abundant in LNCaP-AI than in LNCaP cells
Binder,binding [1],binding [2]
B1,binds,–
B2,–,binds
